Our source for the binding values is article PMC11117073.

Sequences of proteins named here, by UniProt entry; tags and fusion partners are left off.
UniProt P46940: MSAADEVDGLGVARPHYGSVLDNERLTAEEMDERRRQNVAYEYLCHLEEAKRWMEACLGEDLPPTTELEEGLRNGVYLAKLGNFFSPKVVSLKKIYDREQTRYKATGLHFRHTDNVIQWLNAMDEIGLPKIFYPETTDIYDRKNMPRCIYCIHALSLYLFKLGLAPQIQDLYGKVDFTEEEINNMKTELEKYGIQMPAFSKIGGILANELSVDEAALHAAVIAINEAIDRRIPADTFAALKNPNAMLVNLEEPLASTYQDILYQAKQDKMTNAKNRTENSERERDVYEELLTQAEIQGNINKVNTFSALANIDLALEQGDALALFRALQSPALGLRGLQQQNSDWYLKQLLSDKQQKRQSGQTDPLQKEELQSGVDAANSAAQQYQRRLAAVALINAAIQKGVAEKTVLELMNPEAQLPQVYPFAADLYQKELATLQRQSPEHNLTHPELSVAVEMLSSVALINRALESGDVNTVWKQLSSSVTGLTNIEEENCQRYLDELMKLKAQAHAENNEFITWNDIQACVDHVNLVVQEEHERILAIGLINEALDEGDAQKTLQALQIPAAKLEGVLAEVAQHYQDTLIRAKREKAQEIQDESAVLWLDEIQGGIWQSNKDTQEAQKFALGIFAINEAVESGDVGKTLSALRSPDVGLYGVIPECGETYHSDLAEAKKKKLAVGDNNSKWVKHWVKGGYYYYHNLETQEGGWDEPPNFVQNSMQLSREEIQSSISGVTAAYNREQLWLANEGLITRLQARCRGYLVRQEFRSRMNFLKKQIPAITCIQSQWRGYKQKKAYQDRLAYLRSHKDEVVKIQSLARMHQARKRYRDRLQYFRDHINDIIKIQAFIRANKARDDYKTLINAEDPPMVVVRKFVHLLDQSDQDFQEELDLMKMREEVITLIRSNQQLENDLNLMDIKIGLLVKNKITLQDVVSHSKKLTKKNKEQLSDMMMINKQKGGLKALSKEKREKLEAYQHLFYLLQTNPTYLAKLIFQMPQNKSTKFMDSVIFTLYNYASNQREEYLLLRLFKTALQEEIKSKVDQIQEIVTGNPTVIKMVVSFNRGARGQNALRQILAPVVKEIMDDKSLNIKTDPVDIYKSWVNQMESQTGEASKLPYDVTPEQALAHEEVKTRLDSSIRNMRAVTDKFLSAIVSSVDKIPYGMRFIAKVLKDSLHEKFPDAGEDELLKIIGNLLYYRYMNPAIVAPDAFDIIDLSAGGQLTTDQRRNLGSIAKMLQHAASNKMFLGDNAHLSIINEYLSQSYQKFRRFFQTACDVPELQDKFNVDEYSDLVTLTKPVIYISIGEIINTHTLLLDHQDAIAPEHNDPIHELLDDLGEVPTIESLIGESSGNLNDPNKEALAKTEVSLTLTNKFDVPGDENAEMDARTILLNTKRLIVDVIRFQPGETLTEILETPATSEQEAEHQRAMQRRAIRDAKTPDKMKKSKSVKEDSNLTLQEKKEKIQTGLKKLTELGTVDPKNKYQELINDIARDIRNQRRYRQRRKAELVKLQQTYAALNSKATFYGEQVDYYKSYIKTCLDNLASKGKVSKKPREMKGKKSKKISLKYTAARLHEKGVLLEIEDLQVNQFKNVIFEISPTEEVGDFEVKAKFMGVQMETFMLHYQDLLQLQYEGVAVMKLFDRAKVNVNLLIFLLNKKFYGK

Results are given in words; binding and its absence hold for the method and conditions named. Some entries that bind do so weakly or less than the wild type.

The assay addresses 488-SNAP-IQGAP1 (full-length human IQGAP1, SNAP-tagged, labelled with SNAP-Surface 488) (human) (UniProt P46940). Put plainly: multi-colour TIRF microscopy, plus-end occupancy (survival plots); 1 µM actin (10% Alexa 647 label) polymerising with 5 µM PFN1, 1 nM 549-SNAP-mDia1 construct and 1 nM 488-SNAP-IQGAP1; 5-s intervals for 15 min; both purified.

As to “549-SNAP-mDia1(ΔDAD) (amino acids 1-1,175) (from UniProt O08808 1-1175) (domain or fragment)”, the binding entry is listed as “binds”.
